Test results from patent US10385005B2, “Compositions and methods for glucose transport inhibition” (OHIO UNIVERSITY, priority 2010, dated 2019).
For at least one compound, name, drawing or mass did not settle the structure.

Legend:
HeLa cells = test: Glucose uptake assay (3H 2-DG), HeLa; format: cell-based, human; settings: FIG. 8
Protocol: Cells were treated with α-PGG for 20 minutes before ^3H-labeled 2-DG. […] Samples: 1. Mock; 2. […] WZB-25 (30 μM); 5. WZB-26 (30 μM); and 6. WZB-27 (30 μM). Compounds 1a and 2a were initially prepared as potential anti-diabetic analogs of α-PGG (FIG. 1). Given the tight SAR of this class of compounds, it was hypothesized that a more rigid scaffold (i.e., a benzene ring) might enhance the activity. […] Error bars in FIG. 8 represent standard deviations of the measurements. Samples were done in triplicates and the experiment was repeated three times.

p53 = p53 Western blot analysis; format: cell-based, human
3T3-L1 adipocytes = test: Insulin-like activities in 3T3-L1 adipocytes; format: cell-based; settings: fluorescence confocal microscopy
Akt = Akt phosphorylation Western blot in CHO cells overexpressing the insulin receptor; format: cell-based; settings: CHO cells overexpressing IR, FIG. 10
[1] = test system: RKO and RKO E6 cell lines; test: Cell killing assay in RKO and RKO E6 cells; format: cell-based, human; settings: high vs low p53

Q: Which “dose dependence of basal glucose transport inhibition” value (HeLa cells) does the source give for O=C(OC[C@H]1O[C@@H](OC(=O)c2cc(O)c(O)c(O)c2)[C@H](OC(=O)c2cc(O)c(O)c(O)c2)[C@@H](OC(=O)c2cc(O)c(O)c(O)c2)[C@@H]1OC(=O)c1cc(O)c(O)c(O)c1)c1cc(O)c(O)c(O)c1 [α-PGG, penta-galloyl-glucose] here?
A: dose-dependent manner

Q: What about the p53 activation (p53; HeLa, 25 μM) of the same compound?
A: not to be activated

Q: What about the p53 activation (p53; MCF-7) of the same compound?
A: not in HeLa or MCF-7 cells

Q: And the GLUT4 membrane translocation (3T3-L1 adipocytes)?
A: induces insulin-like GLUT4 membrane translocation

Q: And the Akt phosphorylation (Akt)?
A: induces Akt

Q: What about the “cell killing / viability RKO vs RKO E6” value [1] of the same compound?
A: a significant difference in viability between the two cell lines was observed
